Experimental data reported in PMC10238398.
These are yes or no findings as the source states them, for the method shown. Some results given as binding are weak or reduced against the parent protein; the word gives no strength.

The chains behind the UniProt entries cited, without tags or fusion partners.
UniProt P30051: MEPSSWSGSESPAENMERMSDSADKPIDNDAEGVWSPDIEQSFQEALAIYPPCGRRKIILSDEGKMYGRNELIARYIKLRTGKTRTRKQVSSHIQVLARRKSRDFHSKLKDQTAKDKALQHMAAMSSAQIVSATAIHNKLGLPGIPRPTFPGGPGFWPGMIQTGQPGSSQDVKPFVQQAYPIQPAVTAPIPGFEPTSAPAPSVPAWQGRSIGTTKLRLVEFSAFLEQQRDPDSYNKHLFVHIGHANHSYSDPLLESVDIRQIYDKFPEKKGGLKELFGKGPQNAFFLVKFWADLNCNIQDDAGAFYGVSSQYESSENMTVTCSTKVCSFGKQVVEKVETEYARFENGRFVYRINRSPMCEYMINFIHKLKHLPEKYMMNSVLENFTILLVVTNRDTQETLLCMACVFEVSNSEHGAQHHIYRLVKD
UniProt P48301: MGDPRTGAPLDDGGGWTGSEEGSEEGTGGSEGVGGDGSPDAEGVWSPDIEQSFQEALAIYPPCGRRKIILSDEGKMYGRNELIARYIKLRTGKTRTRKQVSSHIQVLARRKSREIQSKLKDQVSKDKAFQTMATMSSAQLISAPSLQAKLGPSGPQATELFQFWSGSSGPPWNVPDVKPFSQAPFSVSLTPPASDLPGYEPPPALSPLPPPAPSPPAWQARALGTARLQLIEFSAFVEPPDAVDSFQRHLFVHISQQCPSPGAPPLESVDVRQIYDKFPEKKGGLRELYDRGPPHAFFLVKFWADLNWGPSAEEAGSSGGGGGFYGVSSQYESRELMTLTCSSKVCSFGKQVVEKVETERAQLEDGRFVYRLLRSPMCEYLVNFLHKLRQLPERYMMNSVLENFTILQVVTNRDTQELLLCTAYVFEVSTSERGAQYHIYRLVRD
UniProt P70210: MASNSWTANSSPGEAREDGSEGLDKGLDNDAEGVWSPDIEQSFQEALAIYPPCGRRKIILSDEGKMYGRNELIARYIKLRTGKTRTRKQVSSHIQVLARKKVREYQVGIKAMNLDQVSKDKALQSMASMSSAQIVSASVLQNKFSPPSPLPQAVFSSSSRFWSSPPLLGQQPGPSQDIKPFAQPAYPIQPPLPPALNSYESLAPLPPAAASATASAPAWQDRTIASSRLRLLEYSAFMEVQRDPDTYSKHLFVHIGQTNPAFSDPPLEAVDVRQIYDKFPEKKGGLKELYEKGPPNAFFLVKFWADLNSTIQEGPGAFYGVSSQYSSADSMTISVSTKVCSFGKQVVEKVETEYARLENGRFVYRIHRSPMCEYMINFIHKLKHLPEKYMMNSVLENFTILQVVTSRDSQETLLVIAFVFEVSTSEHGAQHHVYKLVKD
UniProt Q62296: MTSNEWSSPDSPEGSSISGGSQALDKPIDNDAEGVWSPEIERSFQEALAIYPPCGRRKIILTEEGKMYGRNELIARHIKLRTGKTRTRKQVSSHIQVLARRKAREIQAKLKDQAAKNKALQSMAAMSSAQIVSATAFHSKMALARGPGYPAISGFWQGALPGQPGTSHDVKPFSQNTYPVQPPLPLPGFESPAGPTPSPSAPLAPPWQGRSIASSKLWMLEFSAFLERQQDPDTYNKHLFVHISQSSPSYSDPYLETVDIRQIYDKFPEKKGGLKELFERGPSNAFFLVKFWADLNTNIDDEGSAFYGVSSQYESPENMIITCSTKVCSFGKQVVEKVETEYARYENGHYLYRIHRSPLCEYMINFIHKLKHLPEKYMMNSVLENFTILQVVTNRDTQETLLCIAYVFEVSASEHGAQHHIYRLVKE

What follows are substances tested against T1, myocardin-related transcription factor A (MRTF-A) (mouse (endogenous in primary murine renal fibroblasts)) (UniProt Q8K4J6) (assay: Re-ChIP; sequential chromatin immunoprecipitation with the indicated antibodies on formaldehyde cross-linked chromatin of primary renal fibroblasts treated with TGF-β (2 ng/ml) for 24 h; Zeb1 promoter read out).
T1 sequence: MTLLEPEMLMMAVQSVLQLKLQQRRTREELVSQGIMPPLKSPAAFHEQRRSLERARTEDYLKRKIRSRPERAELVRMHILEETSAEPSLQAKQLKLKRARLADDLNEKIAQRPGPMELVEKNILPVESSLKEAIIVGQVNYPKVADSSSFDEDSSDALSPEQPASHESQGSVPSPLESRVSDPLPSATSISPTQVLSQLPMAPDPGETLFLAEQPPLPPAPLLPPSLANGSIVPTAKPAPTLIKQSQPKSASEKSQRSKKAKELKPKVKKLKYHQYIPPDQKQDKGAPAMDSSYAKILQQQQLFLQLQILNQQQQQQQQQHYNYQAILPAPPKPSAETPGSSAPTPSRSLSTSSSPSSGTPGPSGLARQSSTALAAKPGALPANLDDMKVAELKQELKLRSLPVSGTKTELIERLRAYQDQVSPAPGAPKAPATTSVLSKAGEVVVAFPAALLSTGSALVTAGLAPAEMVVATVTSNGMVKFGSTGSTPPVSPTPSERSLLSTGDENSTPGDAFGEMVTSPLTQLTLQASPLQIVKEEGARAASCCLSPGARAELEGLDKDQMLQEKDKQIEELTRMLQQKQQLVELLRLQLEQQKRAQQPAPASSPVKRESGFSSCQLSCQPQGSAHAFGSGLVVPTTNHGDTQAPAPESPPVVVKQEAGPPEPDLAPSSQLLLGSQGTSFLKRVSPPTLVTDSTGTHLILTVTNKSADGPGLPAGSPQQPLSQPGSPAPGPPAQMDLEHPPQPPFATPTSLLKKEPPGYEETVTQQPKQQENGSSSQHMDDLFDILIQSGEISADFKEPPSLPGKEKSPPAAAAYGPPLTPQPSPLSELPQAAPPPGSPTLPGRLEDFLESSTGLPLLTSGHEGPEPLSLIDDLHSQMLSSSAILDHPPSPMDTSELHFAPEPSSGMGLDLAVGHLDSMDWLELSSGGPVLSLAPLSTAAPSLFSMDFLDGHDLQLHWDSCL

Substance	binding
TEA domain transcription factor 1 (TEAD1) (from UniProt P30051 1-426)	binds
TEAD2 (from UniProt P48301 1-445)	no binding
TEAD3 (from UniProt P70210 1-439)	no binding
TEAD4 (from UniProt Q62296 1-427)	no binding
